Measured values: the M2OR odorant receptor database
Only a part is listed here, and it is no random draw. The calls were merged from several studies; some rest on single wells. The list shows a part of the results. The list shows a part of the results.

What was measured:
Details in all cases: stereoisomer not certain
[1] = test system: T1, OR2W1
T1 sequence (whole entry): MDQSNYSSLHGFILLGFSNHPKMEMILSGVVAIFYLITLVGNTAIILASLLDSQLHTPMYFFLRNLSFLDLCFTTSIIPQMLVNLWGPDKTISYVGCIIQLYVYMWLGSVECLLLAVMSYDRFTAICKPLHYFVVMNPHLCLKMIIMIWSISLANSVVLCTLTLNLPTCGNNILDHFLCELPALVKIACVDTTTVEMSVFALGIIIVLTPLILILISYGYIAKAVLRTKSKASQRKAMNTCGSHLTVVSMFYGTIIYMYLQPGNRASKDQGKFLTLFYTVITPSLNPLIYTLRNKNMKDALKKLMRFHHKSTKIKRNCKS
In short: (§1)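 Assay methods differ from source to source, frequently being transient luciferase assays in mammalian cell lines. For each receptor–molecule pair, the label responsive (active) applies when the original authors judged the measured signal statistically different from baseline, and non-responsive (inactive) applies otherwise.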

[2] = test system: T2, OR2W3
T2 sequence (whole entry): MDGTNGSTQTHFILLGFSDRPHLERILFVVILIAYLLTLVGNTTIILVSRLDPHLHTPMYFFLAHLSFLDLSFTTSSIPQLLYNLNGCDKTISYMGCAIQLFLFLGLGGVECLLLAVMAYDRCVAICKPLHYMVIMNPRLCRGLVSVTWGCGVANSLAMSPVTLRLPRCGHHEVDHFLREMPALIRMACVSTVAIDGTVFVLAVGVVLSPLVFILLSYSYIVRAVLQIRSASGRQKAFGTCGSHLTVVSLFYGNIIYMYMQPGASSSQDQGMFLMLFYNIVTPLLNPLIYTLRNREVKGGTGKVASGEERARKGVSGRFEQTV
In short: as §1

[3] = molecular target: T3, OR2W5P (Homo sapiens) (UniProt A6NFC9)
T3 sequence (whole entry): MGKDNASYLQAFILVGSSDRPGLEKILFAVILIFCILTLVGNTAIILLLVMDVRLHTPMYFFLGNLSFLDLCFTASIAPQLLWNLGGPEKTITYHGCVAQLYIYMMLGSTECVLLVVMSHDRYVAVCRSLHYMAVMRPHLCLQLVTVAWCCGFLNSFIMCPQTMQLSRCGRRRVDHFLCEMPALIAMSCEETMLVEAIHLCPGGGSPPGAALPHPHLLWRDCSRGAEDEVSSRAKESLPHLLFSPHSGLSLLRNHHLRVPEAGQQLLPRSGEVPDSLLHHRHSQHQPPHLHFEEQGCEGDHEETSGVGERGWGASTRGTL
In short: as §1

[4] = test system: T4, OR2Y1
T4 sequence (whole entry): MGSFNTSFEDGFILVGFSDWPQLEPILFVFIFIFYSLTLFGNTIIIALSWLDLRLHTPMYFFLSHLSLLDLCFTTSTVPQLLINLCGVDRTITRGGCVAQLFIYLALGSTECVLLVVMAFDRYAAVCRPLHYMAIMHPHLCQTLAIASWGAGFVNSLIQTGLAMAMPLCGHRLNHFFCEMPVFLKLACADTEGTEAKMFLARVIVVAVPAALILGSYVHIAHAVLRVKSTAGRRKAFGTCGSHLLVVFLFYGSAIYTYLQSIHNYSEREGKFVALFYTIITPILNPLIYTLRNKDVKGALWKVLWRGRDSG
In short: as §1

[5] = molecular target: T5, OR2Z1 (Homo sapiens) (UniProt Q8NG97)
T5 sequence (whole entry): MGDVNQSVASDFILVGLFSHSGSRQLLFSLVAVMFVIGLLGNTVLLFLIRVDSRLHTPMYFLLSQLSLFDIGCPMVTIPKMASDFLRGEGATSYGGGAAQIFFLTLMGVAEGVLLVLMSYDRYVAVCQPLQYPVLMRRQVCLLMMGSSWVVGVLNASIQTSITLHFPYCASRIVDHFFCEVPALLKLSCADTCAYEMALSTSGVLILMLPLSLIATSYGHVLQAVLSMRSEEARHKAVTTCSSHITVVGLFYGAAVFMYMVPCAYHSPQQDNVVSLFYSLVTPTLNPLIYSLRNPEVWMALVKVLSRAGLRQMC
In short: as §1

[6] = molecular target: T6, OR3A1 (Homo sapiens) (UniProt P47881)
T6 sequence (whole entry): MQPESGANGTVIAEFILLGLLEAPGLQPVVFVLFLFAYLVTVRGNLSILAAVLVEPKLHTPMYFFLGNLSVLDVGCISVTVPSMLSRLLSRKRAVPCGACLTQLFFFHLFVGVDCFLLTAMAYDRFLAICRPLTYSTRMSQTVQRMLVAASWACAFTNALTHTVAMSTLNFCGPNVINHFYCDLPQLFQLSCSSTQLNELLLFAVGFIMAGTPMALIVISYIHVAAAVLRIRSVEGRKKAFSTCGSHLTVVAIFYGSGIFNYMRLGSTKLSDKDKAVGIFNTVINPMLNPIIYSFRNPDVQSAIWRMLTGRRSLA
In short: as §1

[7] = molecular target: T7, OR3A2 (Homo sapiens) (UniProt P47893)
T7 sequence (whole entry): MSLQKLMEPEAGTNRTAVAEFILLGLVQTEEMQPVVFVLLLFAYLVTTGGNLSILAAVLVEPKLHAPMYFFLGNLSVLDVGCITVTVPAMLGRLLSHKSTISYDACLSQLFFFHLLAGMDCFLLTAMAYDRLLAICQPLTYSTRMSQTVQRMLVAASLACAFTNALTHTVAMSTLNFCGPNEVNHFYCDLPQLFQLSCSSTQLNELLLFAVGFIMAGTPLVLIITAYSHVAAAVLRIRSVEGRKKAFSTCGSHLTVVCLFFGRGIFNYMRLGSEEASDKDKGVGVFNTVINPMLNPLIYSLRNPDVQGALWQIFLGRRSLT
In short: as §1

[8] = test system: T8, OR3A3
T8 sequence (whole entry): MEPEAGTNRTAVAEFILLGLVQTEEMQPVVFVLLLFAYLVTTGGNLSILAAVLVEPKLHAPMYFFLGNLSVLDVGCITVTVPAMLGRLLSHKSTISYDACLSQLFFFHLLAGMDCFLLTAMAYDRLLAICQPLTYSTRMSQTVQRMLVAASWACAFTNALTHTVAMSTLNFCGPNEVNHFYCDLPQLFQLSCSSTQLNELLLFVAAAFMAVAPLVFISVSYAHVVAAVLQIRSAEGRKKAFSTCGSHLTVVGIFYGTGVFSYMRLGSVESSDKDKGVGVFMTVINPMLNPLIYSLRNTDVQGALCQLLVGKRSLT
In short: as §1

[9] = test system: T9, OR3A4
T9 sequence (whole entry): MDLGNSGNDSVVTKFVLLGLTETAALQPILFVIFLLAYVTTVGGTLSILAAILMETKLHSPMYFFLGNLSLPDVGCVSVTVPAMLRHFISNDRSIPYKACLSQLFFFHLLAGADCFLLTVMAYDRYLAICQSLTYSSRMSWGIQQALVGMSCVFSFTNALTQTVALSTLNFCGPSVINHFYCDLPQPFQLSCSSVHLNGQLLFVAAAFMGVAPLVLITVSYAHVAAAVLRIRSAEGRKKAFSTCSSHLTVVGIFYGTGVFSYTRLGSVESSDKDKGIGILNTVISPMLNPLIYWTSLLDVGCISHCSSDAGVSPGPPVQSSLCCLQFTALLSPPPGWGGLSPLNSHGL
In short: as §1

[10] = molecular target: T10, OR4A16 (Homo sapiens) (UniProt Q8NH70)
T10 sequence (whole entry): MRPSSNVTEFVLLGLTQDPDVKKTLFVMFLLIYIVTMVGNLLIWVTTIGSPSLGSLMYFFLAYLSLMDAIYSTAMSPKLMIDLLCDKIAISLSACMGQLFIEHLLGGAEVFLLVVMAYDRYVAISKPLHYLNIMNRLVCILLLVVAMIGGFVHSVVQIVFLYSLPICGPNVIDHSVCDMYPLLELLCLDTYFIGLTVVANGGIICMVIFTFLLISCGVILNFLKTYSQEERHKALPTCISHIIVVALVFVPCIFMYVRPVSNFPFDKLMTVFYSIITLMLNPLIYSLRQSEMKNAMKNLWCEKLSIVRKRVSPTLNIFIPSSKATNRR
In short: as §1

[11] = molecular target: T11, OR4A4P (Homo sapiens) (UniProt Q8NGN8)
T11 sequence (whole entry): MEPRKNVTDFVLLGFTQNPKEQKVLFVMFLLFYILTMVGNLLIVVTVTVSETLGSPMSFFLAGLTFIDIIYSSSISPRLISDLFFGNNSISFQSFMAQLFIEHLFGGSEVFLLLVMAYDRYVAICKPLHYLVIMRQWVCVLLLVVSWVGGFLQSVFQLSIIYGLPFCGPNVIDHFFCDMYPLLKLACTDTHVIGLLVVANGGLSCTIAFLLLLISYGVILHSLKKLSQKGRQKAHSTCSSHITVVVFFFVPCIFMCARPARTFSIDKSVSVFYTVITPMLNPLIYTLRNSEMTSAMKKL
In short: as §1

[12] = molecular target: T12, OR4A5 (Homo sapiens) (UniProt Q8NH83)
T12 sequence (whole entry): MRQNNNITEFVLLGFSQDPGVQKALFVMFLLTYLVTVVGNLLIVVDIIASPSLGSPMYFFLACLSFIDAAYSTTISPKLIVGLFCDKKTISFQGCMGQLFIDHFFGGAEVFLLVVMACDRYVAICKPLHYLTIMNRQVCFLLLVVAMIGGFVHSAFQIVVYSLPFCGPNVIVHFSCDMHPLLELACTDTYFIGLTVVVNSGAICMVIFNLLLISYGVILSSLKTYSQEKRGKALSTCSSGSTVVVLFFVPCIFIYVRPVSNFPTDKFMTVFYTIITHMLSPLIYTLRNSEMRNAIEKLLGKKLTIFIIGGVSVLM
In short: as §1

[13] = test system: T13, OR4A5
T13 sequence (whole entry): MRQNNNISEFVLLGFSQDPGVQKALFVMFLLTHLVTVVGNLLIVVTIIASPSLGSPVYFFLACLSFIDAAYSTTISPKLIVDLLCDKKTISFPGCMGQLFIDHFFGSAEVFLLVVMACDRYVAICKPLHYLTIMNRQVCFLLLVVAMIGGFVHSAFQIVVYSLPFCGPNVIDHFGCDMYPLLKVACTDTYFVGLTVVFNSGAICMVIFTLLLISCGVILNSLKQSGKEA
In short: as §1

[14] = molecular target: T14, OR4B1 (Homo sapiens) (UniProt Q8NGF8)
T14 sequence (whole entry): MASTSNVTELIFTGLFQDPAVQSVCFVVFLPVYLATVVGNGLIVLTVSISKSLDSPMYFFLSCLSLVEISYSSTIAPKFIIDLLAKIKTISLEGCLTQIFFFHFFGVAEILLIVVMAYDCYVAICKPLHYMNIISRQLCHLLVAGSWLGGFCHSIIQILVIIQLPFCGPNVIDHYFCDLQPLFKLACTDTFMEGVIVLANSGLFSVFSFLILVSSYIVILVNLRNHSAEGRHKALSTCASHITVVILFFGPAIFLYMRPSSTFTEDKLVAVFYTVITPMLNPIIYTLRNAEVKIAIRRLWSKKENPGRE
In short: as §1

[15] = molecular target: T15, OR4C11 (Homo sapiens) (UniProt Q6IEV9)
T15 sequence (whole entry): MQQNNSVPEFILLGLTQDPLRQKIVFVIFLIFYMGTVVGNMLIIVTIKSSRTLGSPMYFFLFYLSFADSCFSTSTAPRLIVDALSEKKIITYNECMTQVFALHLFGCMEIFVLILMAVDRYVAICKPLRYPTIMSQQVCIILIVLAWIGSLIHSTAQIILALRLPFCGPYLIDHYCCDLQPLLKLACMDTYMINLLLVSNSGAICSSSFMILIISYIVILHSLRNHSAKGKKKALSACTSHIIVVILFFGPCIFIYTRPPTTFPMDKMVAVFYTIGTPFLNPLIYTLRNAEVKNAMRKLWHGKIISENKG
In short: as §1

Measured: odorant receptor agonist call

CCCCCCCOC(C)=O
inactive: all assays above

c1cnccn1
inactive: all assays above

CC(C)C=O
active: [7]
inactive: all other assays above

c1ccc(Oc2ccccc2)cc1
inactive: all assays above

CC(=O)OC(C)(C)C1CC=C(C)CC1 (stereo not given)
inactive: all assays above
